{"source": "patent US20050049293A1", "about": "“Use of cholinesterase antagonists to treat insulin resistance” (priority 2002, published 2005)", "origin": "cited, not measured here", "tested_on": "insulin resistance induced by surgical denervation", "conditions": "cited from earlier work", "note": "At least one compound was matched to its structure with a doubt left.", "data": [{"compound": "CC(=O)OCC[N+](C)(C)C", "note": "[acetylcholine]", "values": [{"measurement": "Reversal of insulin resistance induced by surgical denervation, intraportal", "setting": "infused directly into the portal vein, 2.5 μg/kg/min", "result": "complete reversal"}, {"measurement": "Reversal of insulin resistance induced by surgical denervation, intravenous", "setting": "same dose (2.5 μg/kg/min) intravenously", "result": "no reversal"}]}]}
